# Results reported in publication PMC6428284.
# Protein sequences, listed by entry. Tags and fused reporters are not part of them.
# UniProt Q12306: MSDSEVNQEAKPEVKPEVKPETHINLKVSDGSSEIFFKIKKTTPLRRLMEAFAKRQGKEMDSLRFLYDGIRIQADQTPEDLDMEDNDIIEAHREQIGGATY
# Like-named read-outs stand apart in the source and are kept apart here. No constants are given. Whether binding was seen depends on the method and setting. Some binding calls cover weakened binding; strength is not graded here.
# T1: GBD-Yen1 (1–638) (S. cerevisiae) (UniProt P40028)
# T1 sequence: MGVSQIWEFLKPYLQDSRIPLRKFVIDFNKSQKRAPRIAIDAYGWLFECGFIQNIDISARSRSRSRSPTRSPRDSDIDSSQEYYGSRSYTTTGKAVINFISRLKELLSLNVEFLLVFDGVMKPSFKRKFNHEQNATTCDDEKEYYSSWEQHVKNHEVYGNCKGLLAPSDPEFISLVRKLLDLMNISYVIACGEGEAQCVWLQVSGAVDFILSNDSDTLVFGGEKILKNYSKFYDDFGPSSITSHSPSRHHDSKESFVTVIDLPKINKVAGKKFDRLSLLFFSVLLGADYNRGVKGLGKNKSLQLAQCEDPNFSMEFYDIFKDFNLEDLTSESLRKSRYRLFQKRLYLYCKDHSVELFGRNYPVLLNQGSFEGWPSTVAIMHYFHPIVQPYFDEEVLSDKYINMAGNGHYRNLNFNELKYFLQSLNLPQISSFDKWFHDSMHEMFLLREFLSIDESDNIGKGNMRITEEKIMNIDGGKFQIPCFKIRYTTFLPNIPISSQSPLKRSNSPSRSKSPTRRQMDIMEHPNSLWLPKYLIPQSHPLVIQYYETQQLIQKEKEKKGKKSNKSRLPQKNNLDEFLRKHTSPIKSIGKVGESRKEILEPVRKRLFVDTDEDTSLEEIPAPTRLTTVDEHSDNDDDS
# T2: GBD-Yen1 (1–570) (S. cerevisiae) (UniProt P40028)
# T2 sequence: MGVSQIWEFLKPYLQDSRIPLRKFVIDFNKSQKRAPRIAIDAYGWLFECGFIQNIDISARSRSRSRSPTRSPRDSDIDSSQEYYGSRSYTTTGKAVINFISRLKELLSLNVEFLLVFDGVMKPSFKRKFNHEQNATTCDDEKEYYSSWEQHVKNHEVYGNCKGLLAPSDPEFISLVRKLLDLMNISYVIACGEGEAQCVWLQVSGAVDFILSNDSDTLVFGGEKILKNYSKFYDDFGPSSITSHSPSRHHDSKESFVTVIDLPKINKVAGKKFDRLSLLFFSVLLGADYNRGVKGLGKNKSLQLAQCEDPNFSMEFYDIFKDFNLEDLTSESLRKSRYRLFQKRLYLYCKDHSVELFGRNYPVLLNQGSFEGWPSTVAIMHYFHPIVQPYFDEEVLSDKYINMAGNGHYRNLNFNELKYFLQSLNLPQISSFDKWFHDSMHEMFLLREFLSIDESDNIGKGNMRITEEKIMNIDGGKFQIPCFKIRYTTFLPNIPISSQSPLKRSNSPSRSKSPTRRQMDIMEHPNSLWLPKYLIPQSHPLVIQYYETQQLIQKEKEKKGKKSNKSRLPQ
# T3: GBD-Yen1 (1–690) (S. cerevisiae) (UniProt P40028)
# T3 sequence: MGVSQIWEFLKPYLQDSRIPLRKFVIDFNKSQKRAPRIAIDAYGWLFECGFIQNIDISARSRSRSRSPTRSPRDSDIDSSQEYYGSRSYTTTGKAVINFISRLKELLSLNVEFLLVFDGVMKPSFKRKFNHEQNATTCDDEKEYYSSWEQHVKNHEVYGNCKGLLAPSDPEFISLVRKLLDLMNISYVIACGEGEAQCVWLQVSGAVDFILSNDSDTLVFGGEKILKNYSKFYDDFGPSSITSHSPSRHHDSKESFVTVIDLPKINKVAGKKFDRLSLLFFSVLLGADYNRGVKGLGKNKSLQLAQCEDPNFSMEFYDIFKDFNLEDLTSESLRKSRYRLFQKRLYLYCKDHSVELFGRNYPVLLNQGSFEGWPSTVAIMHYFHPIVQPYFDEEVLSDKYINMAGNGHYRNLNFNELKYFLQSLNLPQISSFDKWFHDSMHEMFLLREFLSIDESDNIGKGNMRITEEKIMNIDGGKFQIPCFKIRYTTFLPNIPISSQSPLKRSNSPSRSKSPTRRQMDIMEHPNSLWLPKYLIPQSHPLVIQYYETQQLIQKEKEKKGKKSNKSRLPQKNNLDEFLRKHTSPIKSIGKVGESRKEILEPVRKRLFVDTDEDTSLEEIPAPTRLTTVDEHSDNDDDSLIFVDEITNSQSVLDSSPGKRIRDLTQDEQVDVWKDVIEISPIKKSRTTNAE
# T4: GBD-Yen1 (1–540) (S. cerevisiae) (UniProt P40028)
# T4 sequence: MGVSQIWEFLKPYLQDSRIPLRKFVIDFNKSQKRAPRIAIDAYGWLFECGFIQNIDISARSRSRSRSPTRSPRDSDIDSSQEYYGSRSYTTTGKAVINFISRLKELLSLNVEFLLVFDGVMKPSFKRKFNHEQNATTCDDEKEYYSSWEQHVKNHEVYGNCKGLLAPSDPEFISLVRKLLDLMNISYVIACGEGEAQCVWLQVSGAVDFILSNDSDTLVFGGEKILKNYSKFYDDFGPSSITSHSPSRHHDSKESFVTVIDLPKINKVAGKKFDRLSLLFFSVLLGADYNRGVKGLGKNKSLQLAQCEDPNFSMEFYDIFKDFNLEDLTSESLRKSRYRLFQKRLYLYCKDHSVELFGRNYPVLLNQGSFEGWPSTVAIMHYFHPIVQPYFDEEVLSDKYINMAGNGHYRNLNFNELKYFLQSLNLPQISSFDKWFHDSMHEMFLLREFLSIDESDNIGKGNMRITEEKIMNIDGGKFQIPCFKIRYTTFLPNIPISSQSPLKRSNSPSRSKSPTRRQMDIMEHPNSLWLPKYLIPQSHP
# T5: Gal4 DNA binding domain-Yen1 (full-length YEN1 in pAS1, plasmid pJ90) (S. cerevisiae) (UniProt P40028)
# T5 sequence: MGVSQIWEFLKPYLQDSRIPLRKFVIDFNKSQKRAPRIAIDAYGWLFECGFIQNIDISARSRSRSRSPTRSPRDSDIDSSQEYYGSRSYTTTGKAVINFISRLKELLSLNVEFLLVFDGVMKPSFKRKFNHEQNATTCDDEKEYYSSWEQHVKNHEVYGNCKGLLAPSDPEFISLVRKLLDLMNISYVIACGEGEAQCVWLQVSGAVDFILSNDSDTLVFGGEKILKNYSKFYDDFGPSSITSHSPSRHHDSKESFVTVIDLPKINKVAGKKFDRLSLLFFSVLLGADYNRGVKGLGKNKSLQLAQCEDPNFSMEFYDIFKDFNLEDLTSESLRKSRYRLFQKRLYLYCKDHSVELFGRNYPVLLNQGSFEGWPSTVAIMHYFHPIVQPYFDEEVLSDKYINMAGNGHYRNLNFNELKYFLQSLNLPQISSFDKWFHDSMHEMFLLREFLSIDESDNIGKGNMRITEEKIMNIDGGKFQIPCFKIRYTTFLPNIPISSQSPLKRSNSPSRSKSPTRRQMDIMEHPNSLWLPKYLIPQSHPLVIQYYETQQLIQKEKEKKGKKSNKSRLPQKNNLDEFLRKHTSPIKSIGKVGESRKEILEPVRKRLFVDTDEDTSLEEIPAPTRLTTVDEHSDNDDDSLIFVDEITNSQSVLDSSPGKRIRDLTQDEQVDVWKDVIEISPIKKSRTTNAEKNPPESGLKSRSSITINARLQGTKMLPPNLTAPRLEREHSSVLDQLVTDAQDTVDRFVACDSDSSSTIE
# Legend:
# Assay in all cases: two-hybrid; strain PJ69-4A (wild-type SMT3); GAL4BD-Yen1 or truncated/mutant derivatives as bait, GAL4AD fusions (pACTII) as prey; ten-fold serial dilutions spotted on SC-His and SC-Ade plates, 3 days at 30°C; library screen and directed tests
# [1] = target: T1, GBD-Yen1 (1–638) (S. cerevisiae)
# [2] = target: T2, GBD-Yen1 (1–570) (S. cerevisiae)
# [3] = target: T3, GBD-Yen1 (1–690) (S. cerevisiae)
# [4] = target: T4, GBD-Yen1 (1–540) (S. cerevisiae)
# [5] = target: T5, Gal4 DNA binding domain-Yen1 (full-length YEN1 in pAS1, plasmid pJ90) (S. cerevisiae)
# [6] = target: T1, GBD-Yen1 (1–638) (S. cerevisiae); remark: listed apart in the source
# [7] = target: T2, GBD-Yen1 (1–570) (S. cerevisiae); remark: listed apart in the source
# [8] = target: T3, GBD-Yen1 (1–690) (S. cerevisiae); remark: listed apart in the source
# [9] = target: T4, GBD-Yen1 (1–540) (S. cerevisiae); remark: listed apart in the source
# [10] = target: T5, Gal4 DNA binding domain-Yen1 (full-length YEN1 in pAS1, plasmid pJ90) (S. cerevisiae); remark: listed apart in the source
binding [1],binding [2],binding [3],binding [4],binding [5],binding [6],binding [7],binding [8],binding [9],binding [10],Molecule
binds,no binding,binds,no binding,binds,,,,,,"GAL4AD-Smt3 (full length Smt3 in pACTII, plasmid pF11) (from UniProt Q12306 1-101)"
,,,,,binds,binds weakly,binds,binds weakly,binds,"GAL4AD-Uls1 336–599 (domain or fragment, UniProt Q08562 336-599) GDFADNKILKRPILPSKNMDHTTHNSHDSEQKNSSIIILSDEDESGAGINDIESPLKVSEPNTADALRSSVPEVISLLDLPNIDLNNSVIKEASGSNSIPTSETDAQSSSSSVLQGTIMTEQATQSSQHECNSSLDTLKKNHQKLLKDLNSRESELRNALSCCKTNSEILRRKLSRREKEVSDAEKHWQLLLTSMARGGRTISSTQQILVDEAENQLNKLKEKRQLTKSKLDSINLKMYNYNEQWKSFVHSKNINLQKSLAALE"
